Source: ChEMBL document CHEMBL3988442, “University of Dundee, Small-Polar-MMV Screening Library” (2021).

By UniProt entry, the sequences of proteins in these tests, tags left out.
UniProt E9BF75, entry or part of it: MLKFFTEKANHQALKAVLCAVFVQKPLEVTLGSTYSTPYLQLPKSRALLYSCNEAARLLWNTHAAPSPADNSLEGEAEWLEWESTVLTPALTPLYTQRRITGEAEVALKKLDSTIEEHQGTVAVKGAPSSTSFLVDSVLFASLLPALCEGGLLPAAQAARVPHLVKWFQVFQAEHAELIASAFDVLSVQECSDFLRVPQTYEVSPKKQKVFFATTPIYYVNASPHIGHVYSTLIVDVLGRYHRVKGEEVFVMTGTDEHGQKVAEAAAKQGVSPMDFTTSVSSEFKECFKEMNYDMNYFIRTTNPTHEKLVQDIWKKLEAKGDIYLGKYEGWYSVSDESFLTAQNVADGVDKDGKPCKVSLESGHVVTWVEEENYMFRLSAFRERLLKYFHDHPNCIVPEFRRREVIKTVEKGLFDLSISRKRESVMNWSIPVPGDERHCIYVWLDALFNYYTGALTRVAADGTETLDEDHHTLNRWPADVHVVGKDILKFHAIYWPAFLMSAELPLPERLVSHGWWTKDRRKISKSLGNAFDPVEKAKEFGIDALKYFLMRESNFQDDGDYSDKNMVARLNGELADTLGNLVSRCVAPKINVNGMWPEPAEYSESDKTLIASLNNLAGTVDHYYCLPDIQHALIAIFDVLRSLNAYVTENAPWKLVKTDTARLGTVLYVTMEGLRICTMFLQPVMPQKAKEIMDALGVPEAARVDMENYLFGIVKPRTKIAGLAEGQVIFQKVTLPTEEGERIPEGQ

Mtb heat-shock: 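Assay on Mycobacterium tuberculosis, filed only as a heat shock assay from Cornell; the read-out is not stated. The concentration is filed as 10 mM, unlikely as a test dose, so the dose is not known. Higher reads as stronger inhibition (inferred: compounds with an IC50 in retests scored well above the rest). Size under these conditions: about 69,000 compounds, about 930 of them at 50% or above in at least one test.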
LdMetRS: 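Methionyl-tRNA synthetase (putative), Leishmania donovani (UniProt E9BF75). Primary screen of methionyl-tRNA synthetase; the read-out is not stated. The test concentration is not given. Values are per cent inhibition. Of about 68,000 compounds tested this way, about 24 (0.035%) reached 50% or more in at least one test.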
Mtb growth Cornell: 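Whole-cell assay for inhibitors of Mycobacterium tuberculosis growth, labelled Cornell in the record; the read-out is not stated. The concentration is filed as 10 mM, unlikely as a test dose, so the dose is not known. Higher means stronger inhibition (inferred from two other growth screens of the library). About 53,000 compounds were tested under these conditions; 1.7% (about 900) showed 50% or more at least once.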

Results are percentages, as filed. The controls that fix the scale are not given in the record; negative values are as filed. This is an unselected part of the compounds tested.

{"smiles": "O=C(c1csc(-c2nnc[nH]2)n1)N1CCCCC1Cn1cccn1", "stereo": "centres unmarked", "Mtb heat-shock": 10.19, "LdMetRS": 12.01, "Mtb growth Cornell": -34.07}
{"smiles": "Cc1cc(CN2CCC(CNC(=O)c3ccc(C#N)cc3)C2)[nH]n1", "stereo": "centres unmarked", "Mtb heat-shock": -2.026, "LdMetRS": 3.78, "Mtb growth Cornell": -8.345}
{"smiles": "CC(=O)c1c(F)cccc1NCC(O)c1ccc(F)c(F)c1", "stereo": "centres unmarked", "Mtb heat-shock": -0.9851, "LdMetRS": 12.83, "Mtb growth Cornell": 27.17}
{"smiles": "CC(=O)NCCNC(=O)CN1CCOC(Cn2cc(C)cn2)C1", "stereo": "centres unmarked", "Mtb heat-shock": 7.077, "LdMetRS": 19.2, "Mtb growth Cornell": -30.49}
{"smiles": "CCN1CC2(CC1=O)CN(Cc1ccc(C)o1)CCN(C(=O)C(C)C)C2", "stereo": "centres unmarked", "LdMetRS": 12.97}
{"smiles": "CC(C)N1C(=O)CO[C@H]2CCN(C(=O)c3ccc4c(c3)CCC4)CC[C@@H]21", "LdMetRS": 17.08}
{"smiles": "CC(=O)NC1CCCN(C(=O)CCc2cccnc2)C1", "stereo": "centres unmarked", "Mtb heat-shock": 6.523, "LdMetRS": 5.966}
{"smiles": "CCSc1cc(C(=O)N(Cc2cnn(C)c2)C(C)C)ccn1", "Mtb heat-shock": -4.648, "LdMetRS": 5.775, "Mtb growth Cornell": 9.164}
{"smiles": "CN(C)C(=O)c1ccccc1NC(=O)N[C@@H]1c2ccccc2C[C@@H]1O", "Mtb heat-shock": 9.363, "LdMetRS": 21.6}
{"smiles": "COc1cccc(-c2noc(C3CCN(CC4CCCCC4)C3)n2)c1", "stereo": "centres unmarked", "LdMetRS": 12.86}
{"smiles": "CN1CCN(C(=O)c2n[nH]c3c2CCN(Cc2nccs2)C3)CC1", "Mtb heat-shock": 4.232, "LdMetRS": 7.904, "Mtb growth Cornell": 6.804}
{"smiles": "Cc1ccc(C)c(CSc2nnc([C@@H](N)C(C)C)o2)c1.Cl", "Mtb heat-shock": 9.854, "Mtb growth Cornell": 29.14}
{"smiles": "COC(=O)NCc1cc2n(n1)CCCN(C(C)=O)C2", "Mtb heat-shock": 9.962, "LdMetRS": 8.889, "Mtb growth Cornell": 0.5134}
{"smiles": "CCC(C)NC(=O)c1cc(S(=O)(=O)N(C)C)c(C)s1", "stereo": "centres unmarked", "Mtb heat-shock": -11.96, "LdMetRS": 11.64, "Mtb growth Cornell": 0.3724}
{"smiles": "Cc1cnc(N2CC[C@H]3[C@@H]2CCC(=O)N3c2ccccc2)nc1", "LdMetRS": 4.156}
{"smiles": "O=C(COCC(F)(F)C(F)F)N1CCC(c2ncc[nH]2)CC1", "Mtb heat-shock": -4.436, "LdMetRS": 7.125, "Mtb growth Cornell": 39.56}
{"smiles": "c1c(CN2CCCCC2)nc2n1CCNC2", "LdMetRS": 0}
{"smiles": "CC(C)CCN1CCc2[nH]nc(C(=O)N3CC=CC3)c2C1", "LdMetRS": 15.13}
{"smiles": "N#Cc1cccnc1N1CCC(OCc2ccccc2)CC1", "Mtb heat-shock": 11.84, "LdMetRS": 8.527, "Mtb growth Cornell": 24.55}
{"smiles": "CCS(=O)(=O)N1CCCC2(CCCN2Cc2cccc(Cl)c2)C1", "stereo": "centres unmarked", "LdMetRS": 10.14}

The first 2 entries again:

- O=C(c1csc(-c2nnc[nH]2)n1)N1CCCCC1Cn1cccn1 (centres unmarked) | Mtb heat-shock: 10.19%; LdMetRS: 12.01%; Mtb growth Cornell: -34.07%
- Cc1cc(CN2CCC(CNC(=O)c3ccc(C#N)cc3)C2)[nH]n1 (centres unmarked) | Mtb heat-shock: -2.026%; LdMetRS: 3.78%; Mtb growth Cornell: -8.345%